Where a sequence shows no end group, the ends are not given.

From patent US6676946B2 (priority 1997, dated 2004) come the findings set out here.

This data set in a line: general procedure: Fmoc solid-phase peptide synthesis; Wang resin; TBTU. To be noted: whole synthesis, scale 0.15 mmol.

On to KLFAVWKITYKDT, for which the isolated mass was determined as 31 mg.
